# Screening data

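Control-channel Italica luciferase signal in doxycycline-induced 293T-iDUX4 cells, given as percent activity after a 24-hour treatment. The test concentration is not given here. Percent change in the Italica control signal; more negative values mean stronger inhibition, which points to nonspecific, tet-on or cytotoxic effects.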

Values are in %. Common to all entries: measured here: Italica tet-on control reporter. This is a side read-out of the assay, for part of the compounds, not drawn at random.

Result for COc1cccc(C(=O)Nc2ccc3c(c2)OC[C@H](C)N(CCc2ccccc2)C[C@H](C)[C@@H](OC)CN(C)C3=O)c1 was activity change -24.16%.
Result for C[C@@H](NC(=O)C[C@@H]1CC[C@@H]2[C@H](COC[C@H](O)CN2Cc2cc(F)ccc2F)O1)c1ccccc1 was activity change -27.07%.
Result for N#C[C@@H]1[C@H](c2ccccc2C2=CCCCC2)[C@H](CO)N1C(=O)Nc1ccccc1F was activity change -31.6%.
Result for CN1c2ccc(-c3ccc(F)cc3)cc2[C@H]2[C@H](CCN2S(=O)(=O)c2ccc(F)cc2)[C@@H]1CO was activity change -66.81%.
Result for COc1ccc(S(=O)(=O)N2CC3(CN(Cc4ccccc4OC)[C@@H](CO)c4[nH]c5cc(OC)ccc5c43)C2)cc1 was activity change -15.57%.
Result for COc1ccccc1-c1ccc(C2[C@@H]3CN(S(=O)(=O)c4ccc(F)cc4)C[C@H]2N3)cc1 (some centres undefined) was activity change 1.117%.
Result for COc1ccc2c3c([nH]c2c1)[C@H](CO)N(CC1CC1)CC31CCN(S(=O)(=O)c2cccc(F)c2)CC1 was activity change -19.55%.
Result for O=C(Nc1ccccc1F)N1CCCCN2[C@H](CO)[C@H](c3ccc(C#Cc4cccnc4)cc3)[C@@H]2C1 was activity change -11.27%.
Result for COc1ccc2c3c([nH]c2c1)[C@H](CO)N(C(=O)Nc1ccc(F)cc1)CC31CCN(C(=O)Nc2ccc3c(c2)OCO3)CC1 was activity change -1.511%.
Result for O=C(NC1CCCC1)N1CC(=O)N2[C@H](CO)[C@H](c3ccc(C4=CCCCC4)cc3)[C@@H]2C1 was activity change -18.46%.
Result for CC(C)CC#Cc1ccc([C@@H]2[C@@H](CO)N3CCCCN(C(=O)NC4CCCC4)C[C@@H]23)cc1 was activity change -7.761%.
Result for O=C(Nc1ccc(F)cc1)N1CCCCN2[C@H](C1)[C@@H](c1ccc(C#Cc3ccccc3)cc1)[C@@H]2CO was activity change -44.32%.
Result for COc1ccccc1S(=O)(=O)N(C)C[C@@H]1OCc2ccccc2-c2c(n(C)c3ccccc23)C(=O)N([C@H](C)CO)C[C@@H]1C was activity change -25.82%.
Result for COc1ccccc1CN(C)C[C@H]1OCc2ccccc2-c2c(n(C)c3ccccc23)C(=O)N([C@@H](C)CO)C[C@@H]1C was activity change -6.96%.
Result for COc1ccc2c3c([nH]c2c1)[C@H](CO)N(C(=O)c1ccccc1)CC31CCN(C)CC1 was activity change -19.77%.
Result for Cc1ccccc1-c1ccc([C@@H]2[C@@H](CO)N3C(=O)CN(C(=O)Cc4ccccn4)C[C@@H]23)cc1 was activity change -4.066%.
Result for CN1c2ccc(-c3cccc(C#N)c3)cc2[C@@H]2[C@@H](CCN2S(=O)(=O)c2ccc(F)cc2)[C@@H]1CO was activity change -21.72%.
Result for O=C(C[C@H]1CC[C@@H]2[C@H](COC[C@@H](O)CN2Cc2nccs2)O1)NCc1ccc(Oc2ccccc2)cc1 was activity change -11.48%.
Result for CCCNC(=O)N1CC2(C1)[C@@H](c1ccccc1)[C@@H](CO)N2CC1CCCC1 was activity change -2.823%.
Result for OC[C@@H]1[C@H](c2ccc(-c3ccc(F)cc3)cc2)[C@@H]2CN(CCC(F)(F)F)CCCCN12 was activity change 0.7161%.
Result for Cc1cccc(-c2ccc([C@H]3[C@H]4CN(S(=O)(=O)c5cccs5)CCCCN4[C@H]3CO)cc2)c1 was activity change -6.378%.
Result for COCC(=O)N1CC2(C1)CN(Cc1ccccc1F)[C@H](CO)c1[nH]c3cc(OC)ccc3c12 was activity change -8.568%.
Result for COc1ccc(C#Cc2ccc([C@@H]3[C@@H](CO)N4C(=O)CN(C(=O)c5ccncc5)C[C@@H]34)cc2)cc1 was activity change -22.92%.
Result for CN1c2ccc(C3=CCCCC3)cc2[C@@H]2[C@@H](CCN2C(=O)C2CCCCC2)[C@H]1CO was activity change -16.08%.
Result for N#Cc1ccc(-c2ccc([C@@H]3[C@@H]4CN(S(=O)(=O)Cc5ccccc5)C[C@H]3N4)cc2)cc1 was activity change -66.64%.
Result for C[C@H]1CN([C@@H](C)CO)C(=O)c2ccccc2-c2ccccc2CO[C@H]1CN(C)S(=O)(=O)c1cccc(F)c1 was activity change -26.25%.
Result for O=S(=O)(Cc1ccccc1)N1CCCCN2[C@H](CO)[C@H](c3ccc(-c4cccnc4)cc3)[C@H]2C1 was activity change -14.48%.
Result for COc1ccc2c3c(n(C)c2c1)[C@H](CO)NCC31CN(Cc2ccccc2F)C1 was activity change 3.64%.
Result for CC(C)CC#Cc1ccc([C@H]2[C@@H](CO)N3C(=O)CN(C(=O)Nc4ccc(F)cc4)C[C@@H]23)cc1 was activity change -15.33%.
Result for O=C(Nc1ccccc1F)N1CCCCN2[C@@H](CO)[C@@H](c3ccc(C#Cc4cccnc4)cc3)[C@@H]2C1 was activity change -0.1811%.
Result for Cc1ccc(-c2ccc([C@@H]3[C@@H](CO)N4CCCCN(C(=O)Nc5ccccc5)C[C@@H]34)cc2)cc1 was activity change -4.332%.
Result for O=C(C[C@H]1CC[C@H]2[C@@H](COC[C@@H](O)CN2Cc2cc(F)ccc2F)O1)NCc1ccc(Oc2ccccc2)cc1 was activity change -56.52%.
Result for CN1CCN(C(=O)C[C@@H]2CC[C@H]3[C@@H](COC[C@H](O)CN3Cc3ccc(Oc4ccccc4)cc3)O2)CC1 was activity change -3.038%.
Result for N#Cc1cccc(-c2ccc(C3[C@@H]4CN(C(=O)c5ccc6c(c5)OCO6)C[C@H]3N4)cc2)c1 (some centres undefined) was activity change -37.1%.

From PubChem BioAssay record AID1224904 (Broad Institute, 2016).